Laboratory results taken from patent publication US20240108747A1, “EXTRACELLULAR VESICLE CONJUGATES AND USES THEREOF” (LONZA SALES AG, priority 2019, published 2024).
Some results were stated once for a whole list of compounds, not compound by compound. Some compounds share one range, which may span the group rather than tell each member.

The chains behind the UniProt entries cited, without tags or fusion partners.
UniProt Q86WV6, whole entry H232R: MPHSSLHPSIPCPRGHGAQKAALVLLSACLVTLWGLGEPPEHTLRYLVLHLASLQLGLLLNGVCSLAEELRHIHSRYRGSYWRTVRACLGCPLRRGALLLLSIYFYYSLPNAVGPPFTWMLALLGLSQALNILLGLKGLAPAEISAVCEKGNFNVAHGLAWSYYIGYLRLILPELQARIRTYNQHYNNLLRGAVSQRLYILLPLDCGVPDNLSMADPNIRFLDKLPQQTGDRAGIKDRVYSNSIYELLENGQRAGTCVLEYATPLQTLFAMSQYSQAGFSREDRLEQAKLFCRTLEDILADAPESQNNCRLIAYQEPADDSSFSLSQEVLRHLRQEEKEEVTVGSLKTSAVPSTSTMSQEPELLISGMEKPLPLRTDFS

Target: T1, STING (Homo sapiens, UniProt Q86WV6)
T1 construct: 500,000 PBMCs were plated in a well of a 96-well plate and cultured overnight with the test sample; endogenous in cells; host or cells: human PBMCs from healthy donors
Assay: PBMC assay of STING agonism (IFNβ release into supernatant, ELISA)
Assay type: cell-based
Conditions: compound loaded on exosomes vs free compound; PBMCs from three healthy human donors; FIG. 2

CC(C)C(NC(=O)CCCCCN1C(=O)C=CC1=O)C(=O)N[C@@H](C)C(=O)Nc1ccc(COC(=O)N(C)CCOC(=O)Nc2ncnc3c2ncn3[C@@H]2O[C@@H]3CO[P@](=O)(S)O[C@H]4[C@@H](F)[C@H](n5cnc6c(=O)[nH]cnc65)O[C@@H]4CO[P@](=O)(S)O[C@H]3[C@H]2F)cc1 (stereo partly shown) [CP250]
increase in potency when exosome-associated: 3-4 log
